In publication PMC6176938:
Where a chain is given by its changes, count along the chain named. Results are given in words; binding and its absence hold for the method and conditions named. In cells and extracts the contact can be indirect. A yes stands for co-enrichment or nearness to the bait. Other partners may have been found. For some assays here: No binding means not detected with the bait. Where a sequence is shown, tags or fusion partners need not be part of it. Each block holds one molecule with its values, some of them ahead of it.

What was measured:
[1] = target: T1, GST-Arl8Δ17 T34N (GDP-locked form of Drosophila Arl8) (Drosophila melanogaster) (UniProt Q9VHV5); experiment: affinity purification with mass spectrometry; GST-Arl8Δ17 (Q75L or T34N) on Glutathione-Sepharose beads; clarified S2 cell cytosol prepared with 1% CHAPS (20 mM Tris-HCl pH 8, 110 mM KCl, 5 mM MgCl2, 5 mM β-mercaptoethanol), with GDP or GTPγS, 4°C; eluted with high salt and the opposite nucleotide; only the target purified
T1 sequence: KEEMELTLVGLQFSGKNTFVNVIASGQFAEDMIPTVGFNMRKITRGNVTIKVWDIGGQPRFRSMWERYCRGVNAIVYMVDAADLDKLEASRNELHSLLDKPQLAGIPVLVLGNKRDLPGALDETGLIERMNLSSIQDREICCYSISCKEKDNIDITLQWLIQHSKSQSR

[2] = target: T2, GST-Arl8Δ17 Q75L (GTP-locked form of Drosophila Arl8) (Drosophila melanogaster) (UniProt Q9VHV5); experiment: as above
T2 sequence: T1 sequence with N17T, Q58L

[3] = target: T1, GST-Arl8Δ17 T34N (GDP-locked form of Drosophila Arl8) (Drosophila melanogaster); experiment: affinity purification with mass spectrometry; GST-Arl8Δ17 (Q75L or T34N) on Glutathione-Sepharose beads; clarified S2 cell cytosol prepared without detergent (20 mM Tris-HCl pH 8, 110 mM KCl, 5 mM MgCl2, 5 mM β-mercaptoethanol), with GDP or GTPγS, 4°C; eluted with high salt and the opposite nucleotide; only the target purified
[4] = target: T2, GST-Arl8Δ17 Q75L (GTP-locked form of Drosophila Arl8) (Drosophila melanogaster); experiment: as above
[5] = target: T1, GST-Arl8Δ17 T34N (GDP-locked form of Drosophila Arl8) (Drosophila melanogaster); experiment: as above; remark: listed apart in the source
[6] = target: T2, GST-Arl8Δ17 Q75L (GTP-locked form of Drosophila Arl8) (Drosophila melanogaster); experiment: as above; remark: listed apart in the source

Molecule: CG6613, the Drosophila ortholog of PLEKHM1
- binding [1]: no binding
- binding [2]: no binding
- binding [3]: no binding
- binding [4]: no binding

B1: Zwilch (protein, UniProt Q9VA00 1-641)
chain: MSASANLANVYAELMRRCGESYTITYGAPPTYLVSMVGAAEAGKKIVLVFKEDRNGAVARLRTTPTRAAPKKEGSADLDLTGSPLKDDCLVDAIADLSIDLQLDHSNPWKLEEEYQRGIPVDKARSIVCSEFLQLAEGLGSVWFLCDGSDLGQTQLLQYEFNPTHFSRGILSYQGVRPAYLVTSQALVRHHGKTPDETLIENSYQVNPHMRLRCSWTSSAALPLLVNLNDCDVALNHTFRVGDCGPLTQDFMNQLRILVYIREDIVSYHTDVKQGVSRDPTYRCGSGIDMDELRESINQTMTDVSGLIGRYSISNAEFDIEDVVQRAKVRQLTDLTDKLWELLKCCHSYKDLKIAFSMLFQCAARCNIVNTPTNKNRLAKIITELANRRLAMPCLSGAEPLELLLEIGLEKLYKDYEFIYTESKMCSTNLLKDDSSGASMDDGSPQNLPQLRKSLHNAVRGDPTPGAGMRKTLLHHHGAVNSRSTKYAGSDDDAGFKNSHFDEHESTERISKLFQIHCTLEHLLMMHIHLNLANVYNDVCSELLKKPPKLVESIDDQLSDVMDIRLSAHYVRDHLDGKDPYSRHITMRSHNKFRELKTTFYFNSENICPPNLAQCFQCDDKEMVKERTYHSWIYHKIRSLK
- binding [1]: no binding
- binding [2]: binds
- binding [5]: no binding
- binding [6]: binds

B3: CG11448, the Drosophila ortholog of RILP (protein, UniProt O76878 1-443)
chain: MPGFHLNEMGEMVLDAIDDIGVVDVYDLASDIGKEYERIMDRFGTDAVSGLMPKIINTLELLEALATKNERENATIQELRDKVAQLESEKLEKAEFRRRFDKELELIEEQWRSETNELVDLVSSLQDENKRLVKQTQDLQSSSAQSSGLGASLTESIISMTNHELHSALSDTQVLQRLKEQIYKQRDELKHRERELQDKYSELEHLNIQAERLKASERDTRRRHKLMQAQVKTLCEERADFLAQLQDQSREINQLRKRLGLAEKENEDLVASYDDGQNDPNRPRYTTRELKELISERDELLTTIDTLNEQLAELKPPSQAKGKRQRHFSSSDDSDEDDDGHVADNDDDDDEEEAAAEANELEPPAAGETPPGHDAPVQGPLPYEPDDAPWKKSSESGIRKFFRKLFSDPSDGSNTFPKRSLATLSKMALSATPGSVSASAAAK
- binding [1]: no binding
- binding [2]: binds
- binding [5]: no binding
- binding [6]: binds

Second part, the molecule after the results:

- binding [1]: no binding
- binding [2]: binds
- binding [3]: no binding
- binding [4]: binds
Molecule: Rod

- binding [1]: no binding
- binding [2]: binds
- binding [5]: no binding
- binding [6]: binds
B2: Zw10 (protein, UniProt Q9W4X9 1-721)
chain: MEEEAPRFNVLEEAFNGNGNGCANVEATQSAILKVLTRVNRFQMRVRKHIEDNYTEFLPNNTSPDIFLEESGSLNREIHDMLENLGSEGLDALDEANVKMAGNGRQLREILLGLGVSEHVLRIDELFQCVEEAKATKDYLVLLDLVGRLRAFIYGDDSVDGDAQVATPEVRRIFKALECYETIKVKYHVQAYMLQQSLQERFDRLVQLQCKSFPTSRCVTLQVSRDQTQLQDIVQALFQEPYNPARLCEFLLDNCIEPVIMRPVMADYSEEADGGTYVRLSLSYATKEPSSAHVRPNYKQVLENLRLLLHTLAGINCSVSRDQHVFGIIGDHVKDKMLKLLVDECLIPAVPESTEEYQTSTLCEDVAQLEQLLVDSFIINPEQDRALGQFVEKYETYYRNRMYRRVLETAREIIQRDLQDMVLVAPNNHSAEVANDPFLFPRCMISKSAQDFVKLMDRILRQPTDKLGDQEADPIAGVISIMLHTYINEVPKVHRKLLESIPQQAVLFHNNCMFFTHWVAQHANKGIESLAALAKTLQATGQQHFRVQVDYQSSILMGIMQEFEFESTHTLGSGPLKLVRQCLRQLELLKNVWANVLPETVYNATFCELINTFVAELIRRVFTLRDISAQMACELSDLIDVVLQRAPTLFREPNEVVQVLSWLKLQQLKAMLNASLMEITELWGDGVGPLTASYKSDEIKHLIRALFQDTDWRAKAITQIV
